This note sets out measurements from article PMC7511888, “Dependence of PINK1 accumulation on mitochondrial redox system” (Aging Cell, 2020).

The chains behind the UniProt entries cited, without tags or fusion partners. Residues count along the entry.
UniProt Q9BXM7, residues 78-581: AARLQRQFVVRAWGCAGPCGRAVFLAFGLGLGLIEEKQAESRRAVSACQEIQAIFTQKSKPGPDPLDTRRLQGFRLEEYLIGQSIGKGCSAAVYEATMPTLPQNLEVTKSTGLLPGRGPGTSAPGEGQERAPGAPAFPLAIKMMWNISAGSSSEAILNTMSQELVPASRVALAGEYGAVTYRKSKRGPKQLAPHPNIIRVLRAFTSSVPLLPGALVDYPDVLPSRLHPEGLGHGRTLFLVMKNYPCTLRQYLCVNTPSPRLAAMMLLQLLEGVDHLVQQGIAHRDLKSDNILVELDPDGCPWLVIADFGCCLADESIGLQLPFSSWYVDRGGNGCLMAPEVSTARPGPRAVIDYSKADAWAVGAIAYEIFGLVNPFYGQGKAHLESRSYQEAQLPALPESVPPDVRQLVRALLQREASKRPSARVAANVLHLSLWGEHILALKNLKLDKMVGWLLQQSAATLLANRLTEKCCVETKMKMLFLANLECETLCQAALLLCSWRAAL

For assay [1], the target named is T1, CHCHD4 (human (endogenous in HEK293)) (UniProt Q8N4Q1).
T1 sequence: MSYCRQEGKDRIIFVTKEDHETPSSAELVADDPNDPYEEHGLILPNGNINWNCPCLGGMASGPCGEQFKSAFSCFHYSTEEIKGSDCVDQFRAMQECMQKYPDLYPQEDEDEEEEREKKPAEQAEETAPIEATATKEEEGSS
Put plainly: co-IP; endogenous proteins; HEK293 cells treated with CCCP (5 μM) for 2 hr; lysed in 50 mM Tris-HCl pH 7.5, 150 mM NaCl, 1 mM EDTA, 1% Nonidet P-40; precipitated with anti-CHCHD4 antibodies (Fig 3k) or anti-PINK1 antibody (Fig 3l); immunoblot. Background: A western blot detects proteins with antibodies after separation by electrophoresis.

Assay [2] concerns the target PTEN-induced putative kinase 1 (PINK1) (human (endogenous in HEK293)) (UniProt Q9BXM7). The assay is described as above.

Results are given in words; binding and its absence hold for the method and conditions named. In cells and extracts the contact can be indirect. Some binding calls cover weakened binding; strength is not graded here.

Regarding “PTEN-induced putative kinase 1 (PINK1) (from UniProt Q9BXM7 78-581)”, the binding entry in assay [1] is on record as “binds”.

B1: CHCHD4 (protein, UniProt Q8N4Q1 1-142)
chain: T1 sequence
Take B1: in assay [2], the binding result is on record as “binds”.
